The assay deals with HEK293A TEAD-LUC reporter. Nature of the assay: TEAD-luciferase reporter activity (YAP activation), robust Z score vs plate; higher = stronger YAP/TEAD activation. The conditions noted are these: 24 h. A general note: Reporter assays use an easily measured gene product as a stand-in for the process of interest.

Each structure is given as a SMILES string. Some of the results follow. Single values are uncertain here, since repeats match poorly.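 Human kidney-derived cells stably carry a construct in which eight TEAD-binding elements drive luciferase, measured by luminescence in a drug-repurposing library screen. A hit is any compound whose signal exceeds the plate mean by more than five robust Z scores.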

Turning to `CCOC(=O)C1=C(COCCNCC(N)=O)NC(C)=C(C(=O)OC)C1c1ccccc1Cl` (stereo unspecified), the TEAD-luciferase reporter activity runs as follows: (compound concentration: 200 nM) inactive: -1.18; (compound concentration: 2 uM) inactive: -0.32; (compound concentration: 10 uM) inactive: -1.52.
As to `Cc1cnc(C(=O)NCCc2ccc(S(=O)(=O)NC(=O)NC3CCCCC3)cc2)cn1` [glipizide], the TEAD-luciferase reporter activity (compound concentration: 2 uM) is inactive: -0.923.
On to `Cc1cnc(C(=O)NCCc2ccc(S(=O)(=O)NC(=O)NC3CCCCC3)cc2)cn1`, for which the TEAD-luciferase reporter activity is inactive: 3.55 (compound concentration: 200 nM) and inactive: -0.821 (compound concentration: 10 uM).
`COc1cc(Cc2cnc(N)nc2N)cc(OC)c1OC`: the TEAD-luciferase reporter activity runs as follows: (compound concentration: 200 nM) inactive: 2.07; (compound concentration: 10 uM) inactive: 0.0358.
Consider `COc1cc(Cc2cnc(N)nc2N)cc(OC)c1OC` [co-trimazine], for which, under “compound concentration: 2 uM”, the TEAD-luciferase reporter activity was inactive: -0.878.
Take `CN(C)CCCN1C(=O)c2cc([N+](=O)[O-])ccc2Oc2ccccc21` [Nitroxazepine]: the TEAD-luciferase reporter activity by setting is: (compound concentration: 200 nM) inactive: -0.891; (compound concentration: 2 uM) inactive: -1.96; (compound concentration: 10 uM) inactive: 3.97.
Consider `CC(CNC(=O)c1ccccc1)C(=O)OCC(=O)C12OC(c3ccc(N(C)C)cc3)O[C@@H]1C[C@H]1[C@@H]3CCC4=CC(=O)C=CC4(C)[C@@]3(F)[C@@H](O)CC12C` (stereo partly specified), for which the TEAD-luciferase reporter activity is inactive: 1.13 (compound concentration: 200 nM), inactive: 1.87 (compound concentration: 2 uM) and inactive: 0.44 (compound concentration: 10 uM).
Consider `COc1[nH]c2ccc(F)cc2c1C(=O)OCC1CCN(CCNS(C)(=O)=O)CC1`, for which the TEAD-luciferase reporter activity (compound concentration: 200 nM) was inactive: -0.939, the TEAD-luciferase reporter activity (compound concentration: 2 uM) was inactive: 0.901 and the TEAD-luciferase reporter activity (compound concentration: 10 uM) is inactive: 0.379.
The like results for `COc1nccnc1NS(=O)(=O)c1ccc(N)cc1` were, in that order, inactive: -1.61, inactive: 1.26 and inactive: -1.61.
The matching figures for `CC1(C)CC[C@]2(C(=O)O[C@@H]3O[C@H](CO)[C@@H](O)[C@H](O)[C@H]3O)[C@@H](O)C[C@]3(C)C(=CCC4[C@@]5(C)CC[C@H](O)C(C)(C)C5CC[C@]43C)[C@@H]2C1` (stereo partly specified): inactive: 1.28, inactive: 0.772 and inactive: 2.56.
Turning to `CO[C@H]1/C=C/O[C@@]2(C)Oc3c(C)c(O)c4c(O)c(c5c(nc6cc(C)ccn65)c4c3C2=O)NC(=O)C(C)=C/C=C/[C@H](C)[C@H](O)[C@@H](C)[C@@H](O)[C@@H](C)[C@H](OC(C)=O)[C@@H]1C` [rifaximin], the TEAD-luciferase reporter activity (compound concentration: 2 uM) is inactive: -0.32.
Regarding `CO[C@H]1/C=C/O[C@@]2(C)Oc3c(C)c(O)c4c(O)c(c5c(nc6cc(C)ccn65)c4c3C2=O)NC(=O)C(C)=C/C=C/[C@H](C)[C@H](O)[C@@H](C)[C@@H](O)[C@@H](C)[C@H](OC(C)=O)[C@@H]1C`, the TEAD-luciferase reporter activity runs as follows: (compound concentration: 200 nM) inactive: 1.37; (compound concentration: 10 uM) inactive: 0.809.
Regarding `O=C1CN(/N=C/c2ccc([N+](=O)[O-])o2)C(=O)N1` [Nitrofurantoin], where the note is “compound concentration: 2 uM”, the TEAD-luciferase reporter activity was inactive: 0.107.
Turning to `O=C1CN(/N=C/c2ccc([N+](=O)[O-])o2)C(=O)N1`, the TEAD-luciferase reporter activity was inactive: 0.358 (compound concentration: 200 nM) and inactive: -0.00789 (compound concentration: 10 uM).
Consider `Nc1nccc2c1ncn2[C@@H]1O[C@H](CO)[C@@H](O)[C@H]1O` [3-Deazaadenosine], for which the TEAD-luciferase reporter activity is, setting by setting: (compound concentration: 200 nM) inactive: -0.716; (compound concentration: 2 uM) inactive: -1.07; (compound concentration: 10 uM) inactive: -0.882.
For `O=C(Nc1cccc(OC(F)(F)F)c1)O[C@@H]1COc2nc([N+](=O)[O-])cn2C1`, the TEAD-luciferase reporter activity runs as follows: (compound concentration: 200 nM) inactive: 0.904; (compound concentration: 2 uM) inactive: -1.88; (compound concentration: 10 uM) inactive: -0.198.
With `O=C(O)CC[C@H]1CC[C@@](c2cc(F)ccc2F)(S(=O)(=O)c2ccc(Cl)cc2)CC1`, the TEAD-luciferase reporter activity is inactive: -0.321 (compound concentration: 200 nM), inactive: -1.03 (compound concentration: 2 uM) and inactive: -2.15 (compound concentration: 10 uM).
The matching figures for `CC[C@@H]([C@H](C)O)n1ncn(-c2ccc(N3CCN(c4ccc(OC[C@@H]5CO[C@@](Cn6cncn6)(c6ccc(F)cc6F)C5)cc4)CC3)cc2)c1=O` [posaconazole]: inactive: -1.01, inactive: 0.745 and inactive: 1.41.
For `COc1cc(F)cc2c1-c1c(OC)cc(F)cc1C21NC(=O)NC1=O`, the TEAD-luciferase reporter activity is inactive: -1.09 (compound concentration: 200 nM), inactive: -1.6 (compound concentration: 2 uM) and inactive: 0.834 (compound concentration: 10 uM).
Consider `COc1cc(-n2cnc3cc(-c4ccc(Cl)cc4)sc3c2=O)ccc1OCC(OP(=O)(O)O)C1CC1` (stereo unspecified), for which the TEAD-luciferase reporter activity was inactive: -0.0997 (compound concentration: 200 nM), inactive: -1.3 (compound concentration: 2 uM) and inactive: -1.43 (compound concentration: 10 uM).
Consider `COC[C@H](NC(=O)c1cnc(C)s1)C(=O)N[C@@H](COC)C(=O)N[C@@H](Cc1ccccc1)C(=O)C1(C)CO1` (stereo partly specified) [oprozomib], for which the TEAD-luciferase reporter activity runs as follows: (compound concentration: 200 nM) inactive: 0.413; (compound concentration: 2 uM) inactive: -1.55; (compound concentration: 10 uM) inactive: 0.0228.
As for `COc1cc(C(=O)OCCCN2CCCN(CCCOC(=O)c3cc(OC)c(OC)c(OC)c3)CC2)cc(OC)c1OC` [dilazep], the TEAD-luciferase reporter activity (compound concentration: 200 nM) was inactive: 1.61, the TEAD-luciferase reporter activity (compound concentration: 2 uM) is inactive: -0.953 and the TEAD-luciferase reporter activity (compound concentration: 10 uM) was inactive: 3.59.
For `Nc1nc(=O)n([C@H]2CC(O)C(CO)O2)cc1I` (stereo partly specified) [ibacitabine], the TEAD-luciferase reporter activity was inactive: -0.597 (compound concentration: 200 nM), inactive: 0.862 (compound concentration: 2 uM) and active: 9.95 (compound concentration: 10 uM).
Consider `CC(=N)NCCCCC(N)C(=O)Nc1nnn[nH]1` (stereo unspecified), for which the TEAD-luciferase reporter activity (compound concentration: 200 nM) is inactive: -0.084, the TEAD-luciferase reporter activity (compound concentration: 2 uM) was inactive: -0.141 and the TEAD-luciferase reporter activity (compound concentration: 10 uM) is inactive: 2.27.
For `CC(C)(CS(=O)(=O)c1ccc(OC(=O)C(C)(C)c2ccc(C(C)(C)C(=O)Oc3ccc(S(=O)(=O)CC(C)(C)C(=O)O)cc3)cc2)cc1)C(=O)O`, the TEAD-luciferase reporter activity is inactive: -0.00781 (compound concentration: 200 nM), inactive: -0.258 (compound concentration: 2 uM) and inactive: -1.19 (compound concentration: 10 uM).
With `CC(C)(C)NCC(O)COc1ccccc1OCC1CCCO1` (stereo unspecified), the TEAD-luciferase reporter activity (compound concentration: 200 nM) was inactive: -1.42, the TEAD-luciferase reporter activity (compound concentration: 2 uM) is inactive: -0.718 and the TEAD-luciferase reporter activity (compound concentration: 10 uM) is inactive: 0.733.

The values above are taken from the supplement of paper PMC10735217.
